## Results of single-concentration screens

Chains of the proteins cited; added tags and fusions are not shown. Residues count along the entry.
UniProt P9WNZ1, whole entry: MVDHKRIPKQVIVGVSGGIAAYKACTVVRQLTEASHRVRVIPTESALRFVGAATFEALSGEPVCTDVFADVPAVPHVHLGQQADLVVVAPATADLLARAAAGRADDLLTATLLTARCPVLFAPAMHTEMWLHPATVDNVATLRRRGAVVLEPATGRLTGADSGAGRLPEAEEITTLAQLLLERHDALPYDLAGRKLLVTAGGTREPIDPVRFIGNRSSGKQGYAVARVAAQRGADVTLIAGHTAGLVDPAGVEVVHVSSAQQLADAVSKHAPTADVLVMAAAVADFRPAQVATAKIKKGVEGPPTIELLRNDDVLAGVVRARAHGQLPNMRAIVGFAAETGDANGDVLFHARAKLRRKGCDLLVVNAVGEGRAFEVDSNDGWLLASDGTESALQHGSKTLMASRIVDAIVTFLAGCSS
UniProt I6X8D2, whole entry: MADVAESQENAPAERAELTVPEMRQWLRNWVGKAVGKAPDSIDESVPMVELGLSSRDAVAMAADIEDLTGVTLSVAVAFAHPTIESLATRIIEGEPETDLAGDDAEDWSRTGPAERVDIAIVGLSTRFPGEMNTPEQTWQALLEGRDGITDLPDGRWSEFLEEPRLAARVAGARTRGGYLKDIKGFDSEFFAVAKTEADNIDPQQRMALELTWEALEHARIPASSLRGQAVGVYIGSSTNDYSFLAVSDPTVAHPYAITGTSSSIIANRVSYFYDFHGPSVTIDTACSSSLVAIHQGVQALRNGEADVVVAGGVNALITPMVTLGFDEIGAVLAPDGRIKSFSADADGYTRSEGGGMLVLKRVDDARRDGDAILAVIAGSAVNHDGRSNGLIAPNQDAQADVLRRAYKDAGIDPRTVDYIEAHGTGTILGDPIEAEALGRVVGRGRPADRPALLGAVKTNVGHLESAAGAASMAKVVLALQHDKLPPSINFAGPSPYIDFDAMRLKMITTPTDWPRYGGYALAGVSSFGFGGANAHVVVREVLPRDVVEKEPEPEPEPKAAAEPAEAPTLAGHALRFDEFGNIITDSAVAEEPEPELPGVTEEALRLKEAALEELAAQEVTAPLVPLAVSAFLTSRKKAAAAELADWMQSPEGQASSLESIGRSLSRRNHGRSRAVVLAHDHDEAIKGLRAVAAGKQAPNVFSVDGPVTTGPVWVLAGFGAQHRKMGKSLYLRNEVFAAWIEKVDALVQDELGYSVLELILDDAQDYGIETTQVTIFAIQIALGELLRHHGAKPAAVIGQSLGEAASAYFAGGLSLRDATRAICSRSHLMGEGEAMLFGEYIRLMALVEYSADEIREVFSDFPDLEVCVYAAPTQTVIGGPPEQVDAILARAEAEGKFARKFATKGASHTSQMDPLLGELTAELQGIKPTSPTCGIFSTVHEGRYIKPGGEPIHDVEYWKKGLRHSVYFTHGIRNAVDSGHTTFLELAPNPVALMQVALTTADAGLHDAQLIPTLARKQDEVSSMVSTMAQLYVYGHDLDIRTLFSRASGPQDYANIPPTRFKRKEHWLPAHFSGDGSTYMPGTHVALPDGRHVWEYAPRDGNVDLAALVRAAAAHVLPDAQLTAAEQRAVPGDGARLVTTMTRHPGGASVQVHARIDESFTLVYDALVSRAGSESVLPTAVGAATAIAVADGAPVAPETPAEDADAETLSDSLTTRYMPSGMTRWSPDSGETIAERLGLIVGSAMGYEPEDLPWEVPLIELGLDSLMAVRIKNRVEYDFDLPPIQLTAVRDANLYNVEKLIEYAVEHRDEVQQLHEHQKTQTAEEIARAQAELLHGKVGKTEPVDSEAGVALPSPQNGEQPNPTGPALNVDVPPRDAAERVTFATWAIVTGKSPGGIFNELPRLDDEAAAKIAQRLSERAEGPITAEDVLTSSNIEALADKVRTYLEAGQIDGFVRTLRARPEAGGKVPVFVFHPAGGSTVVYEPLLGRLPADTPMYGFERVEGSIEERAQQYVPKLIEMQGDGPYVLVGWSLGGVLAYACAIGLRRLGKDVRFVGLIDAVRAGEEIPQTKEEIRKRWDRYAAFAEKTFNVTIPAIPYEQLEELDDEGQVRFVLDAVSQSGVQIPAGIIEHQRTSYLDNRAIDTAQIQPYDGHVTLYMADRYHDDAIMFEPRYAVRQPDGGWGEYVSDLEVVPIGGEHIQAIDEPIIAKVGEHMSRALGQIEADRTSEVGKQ
UniProt P9WPC5, whole entry: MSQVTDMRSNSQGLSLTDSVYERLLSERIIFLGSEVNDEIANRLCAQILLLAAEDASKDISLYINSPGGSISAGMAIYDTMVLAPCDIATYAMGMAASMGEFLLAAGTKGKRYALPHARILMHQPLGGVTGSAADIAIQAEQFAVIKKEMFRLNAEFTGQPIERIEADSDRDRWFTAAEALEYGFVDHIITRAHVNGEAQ
UniProt P9WPC3, whole entry partner: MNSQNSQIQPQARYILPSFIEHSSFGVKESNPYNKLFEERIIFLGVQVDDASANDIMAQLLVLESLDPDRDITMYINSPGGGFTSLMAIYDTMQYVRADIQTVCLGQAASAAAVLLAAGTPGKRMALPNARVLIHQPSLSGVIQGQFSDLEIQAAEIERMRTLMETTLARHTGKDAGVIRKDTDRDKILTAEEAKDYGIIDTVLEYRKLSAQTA
UniProt Q4DA54, 1-478: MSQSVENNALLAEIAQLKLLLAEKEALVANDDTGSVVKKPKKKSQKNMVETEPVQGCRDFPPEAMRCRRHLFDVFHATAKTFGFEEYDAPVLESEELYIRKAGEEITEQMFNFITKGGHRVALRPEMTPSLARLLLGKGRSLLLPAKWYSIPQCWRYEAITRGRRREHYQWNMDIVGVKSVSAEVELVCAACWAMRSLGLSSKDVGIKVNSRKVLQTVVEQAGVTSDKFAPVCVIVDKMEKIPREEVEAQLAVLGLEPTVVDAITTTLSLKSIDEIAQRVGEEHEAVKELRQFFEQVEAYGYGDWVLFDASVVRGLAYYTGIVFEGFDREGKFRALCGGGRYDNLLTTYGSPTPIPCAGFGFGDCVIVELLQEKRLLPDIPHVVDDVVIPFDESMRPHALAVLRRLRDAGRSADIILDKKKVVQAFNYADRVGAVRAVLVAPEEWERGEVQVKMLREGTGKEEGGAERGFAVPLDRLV

From ChEMBL document CHEMBL3988442, “University of Dundee, Small-Polar-MMV Screening Library” (2021).

The filed quantity is “Percent Effect” (%).
The controls that fix the scale are not given in the record; negative values are as filed.
The compounds are a random part of those screened.
Two or more numbers in one place are separate tests of the same structure; such repeats can differ widely.
A dash means the value is not listed here; it may have been measured.

CoaBC: 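Coenzyme A biosynthesis protein CoaBC, Mycobacterium tuberculosis (UniProt P9WNZ1). Enzyme assay of CoaBC with a phosphate dye (Biomol Green) read at 650 nm. Compounds at 30 µM. Higher reads as stronger inhibition, judged from the few compounds that gave an IC50. Most strong results did not repeat in a second test. Size under these conditions: about 67,000 compounds, about 40 of them at 50% or above in at least one test.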
Leishmania in macrophages: 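Cell assay of Leishmania donovani living inside macrophages; the read-out is not stated. Compounds at 30 µM. The record gives no direction; compounds that gave an IC50 in retests scored well above the rest, so higher reads as stronger inhibition. Of about 69,000 compounds tested this way, about 1,000 (1.5%) reached 50% or more in at least one test.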
Pks13 thioesterase: 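Polyketide synthase Pks13, Mycobacterium tuberculosis (UniProt I6X8D2). Enzyme assay of the thioesterase domain of polyketide synthase 13; the read-out is not stated. Concentration: 30 µM. Higher reads as stronger inhibition (inferred from which compounds were picked for retests). Of about 67,000 compounds tested this way, about 300 (0.46%) reached 50% or more in at least one test.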
ClpP1P2: 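Protease assay of ClpP1P2, read by the AMC dye that it sets free. Target: ClpP1P2, Mycobacterium tuberculosis (UniProt P9WPC5 and UniProt P9WPC3). Tested at 50 µM. Higher reads as stronger inhibition, judged from the few compounds that gave an IC50. Most other retested compounds had strongly negative values. Size under these conditions: about 69,000 compounds, about 10 of them at 50% or above in at least one test.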
TcHisRS: 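Enzyme assay of histidyl-tRNA synthetase; the read-out is not stated. Target: Histidine-tRNA ligase, Trypanosoma cruzi CL Brener (UniProt Q4DA54). Compounds at 30 µM. Direction is inferred from retests: higher values go with stronger inhibition. Of about 69,000 compounds tested this way, about 31 (0.045%) reached 50% or more in at least one test.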

| # | Compound | CoaBC | Leishmania in macrophages | Pks13 thioesterase | ClpP1P2 | TcHisRS |
|---|---|---|---|---|---|---|
| 1 | `Cc1ccccc1S(=O)(=O)N(C)[C@@H]1CC[C@@H](n2ccnc2C)[C@@H]1O` | -20.1% | 9.99% | -16.28% | 9.337% | -1.695% |
| 2 | `O=C(C1CCC1)N1CCCC(c2cccc(-n3ccnc3)n2)C1` (stereo unspecified) | 0.4854% | -1.581% & 6.888% | 14.06% | -8.198% | 2.198% |
| 3 | `NC(=O)c1ccc(NC(=O)Cn2cc(I)cn2)cc1` | 3.291% | 10.42% & 7.153% | -4.62% | -14.77% | 1.22% |
| 4 | `CC(=O)N1CCC(N[C@@H]2CO[C@H](CNC(=O)c3cccs3)[C@H]2O)CC1` | 13.32% | -26.33% | 3.938% | -10.94% | 5.941% |
| 5 | `CC(C)(C)CC(=O)NCC(=O)NCC(O)c1ccc2ccccc2c1` (stereo unspecified) | 5.179% | 5.632% | -11% | -3.726% | 5.263% |
| 6 | `O=C1N(CC2CC2)CCCC1(O)CN1CCc2[nH]ncc2C1` (stereo unspecified) | 1.373% | 4.774% | -17.99% | -6.327% | 3.867% |
| 7 | `Cc1noc(C)c1CN1C(=O)[C@H]2CC[C@@H]1CN(Cc1cccc(O)c1)C2` | 1.775% | - | -37.38% | 5.474% | 0% |
| 8 | `COc1cc(C(=O)N2Cc3cnc(C(C)(C)C)nc3C2)ccn1` | 2.545% | 18.39% | -11.21% | -13.68% | 6.122% |
| 9 | `CC1=NC2(CCN(CC(C)c3ccccc3)CC2)C(=O)N1` (stereo unspecified) | -5.357% | 10.6% | -34.21% | -0.19% | 4.972% |
| 10 | `CC(=O)N[C@@H]1CN(S(=O)(=O)Cc2ccccc2)C[C@H]1C(C)C` | 5.295% | 0.2398% | 4.075% | -4.08% | 1.587% |
| 11 | `Clc1cccc(C[C@@H]2NCCC[C@@H]2Nc2ccccc2)c1` | 8.551% | - | -4.413% | -20.37% | 3.846% |
| 12 | `CC(=O)NC1CCCN(C(=O)Nc2nnc(C(C)C)s2)C1` (stereo unspecified) | 15.33% | 9.072% | -18.67% | 3.167% | 9.184% |
| 13 | `O=C(Cc1ccsc1)N1CCC(c2n[nH]c3nccnc23)CC1` | -1.961% | 3.845% | -3.278% | 3.817% | 1.064% |
| 14 | `Cc1nc(N2CCOc3ccc(CO)cc3C2)c2nc(C)oc2n1` | -6.774% | -16.19% | 7.173% | 2.979% | 5.419% |
| 15 | `Cc1csc(CNC(=O)N(C)Cc2ccc([S+](C)[O-])cc2)n1` (stereo unspecified) | 2.244% | 26.52% | -14.87% | -12.11% | -2.956% |
| 16 | `Cc1ncc(C(=O)NCCNc2ccncc2)s1` | -4.132% | 6.016% | -12.06% | 15.55% | 14% |
| 17 | `O=C(c1ccc(S(=O)(=O)NCCc2ccccn2)cc1)N1CCCC1` | 2.296% | 14.78% | -4.32% | -2.616% | 5.128% |
| 18 | `Cc1nc(O)cc(C2CCN(Cc3ccc(F)c(F)c3)C2)n1` (stereo unspecified) | 4.126% | - | 12.17% | -17.16% | 8.791% |
| 19 | `CC(=O)N1CCC2(CCCN2Cc2cnn(C)c2)CC1.O=C(O)C(F)(F)F` | - | 30.87% | - | - | - |
| 20 | `Cc1ccc(CN(C)Cc2cc(C3CC3)[nH]n2)c(O)n1` | 4.37% | 5.894% | -6.764% | -4.91% | -50.28% |
| 21 | `O=S(=O)(c1cncc(F)c1)N1CCC2(CCCCC2)C1` | 12.2% | 20.21% | 4.791% | -22.55% | 2.083% |
| 22 | `COc1cccc(CSCC(=O)NCc2cccnc2)c1` | 4.225% | -7.445% | -9.741% | 3.854% | 2.809% |
| 23 | `C[C@@H]1CN(Cc2cccc(F)c2)C[C@]12CCN(Cc1cccnc1)C2=O` | 4.235% | - | -17.25% | 12.37% | 9.135% |
| 24 | `COCC1c2c(cnn2C)CCN1Cc1ccsc1` (stereo unspecified) | 7.519% | -1.12% | -9.814% | -3.014% | 2.439% |
| 25 | `CN1CCc2c1nc1c(c2N)CCC1` | -0.9709% | 44.33% | -2.205% | -2.867% | 4.95% |
| 26 | `Cc1noc(CN2CCCC2c2noc(C3CC3)n2)n1` (stereo unspecified) | -0.5821% | -19.01% | -21.23% | -8.562% | -0.2907% |
| 27 | `Cc1noc(C(C)N2CCC(c3nc4ccccc4[nH]3)CC2)n1` (stereo unspecified) | 0.1229% | 33.56% | 8.008% | 6.626% | 4.762% |
| 28 | `CC(C)n1nc(CN2CCOCC2)c2c1CN(C(=O)c1ccno1)C2` | 1.485% | - | -2.159% | -9.475% | -1.105% |
| 29 | `COc1ccc2nc(CNC(=O)c3cc(C(C)C)no3)[nH]c2c1` | 0% | -18% | -16.67% | 15.72% | 6.358% |
| 30 | `COCCN1Cc2ccnn2CC(COCc2cccnc2)C1` (stereo unspecified) | 2.804% | -4.368% | 27.11% | 4.352% | 8.696% |
| 31 | `CC(C)c1nc(C2CCCN2CCc2ccncc2)no1` (stereo unspecified) | -3.614% | -15.8% | -10.52% | -7.838% | 10.69% |
| 32 | `O=C([C@H](O)c1ccccc1)N1CCN(c2cccc(Cl)c2)C(=O)C1` | 17.89% | -20.91% | -10.72% | -16.95% | -1.667% |
| 33 | `CC(C)Cc1noc(CN2CCCC2c2noc(C3CC3)n2)n1` (stereo unspecified) | 5.471% | 6.336% | 6.316% | -20.79% | 3.779% |

3 of the entries, repeated:

Compound,CoaBC,Leishmania in macrophages,Pks13 thioesterase,ClpP1P2,TcHisRS
Cc1nc(N2CCOc3ccc(CO)cc3C2)c2nc(C)oc2n1,-6.774%,-16.19%,7.173%,2.979%,5.419%
Cc1noc(C(C)N2CCC(c3nc4ccccc4[nH]3)CC2)n1 (stereo unspecified),0.1229%,33.56%,8.008%,6.626%,4.762%
COc1ccc2nc(CNC(=O)c3cc(C(C)C)no3)[nH]c2c1,0%,-18%,-16.67%,15.72%,6.358%